{"sequences": {"note": "The chains behind the UniProt entries cited, without tags or fusion partners. A line that says so, or that is headed by a name, gives the form on record, which may keep a tag or linker.", "UniProt P13569, with tags, fused parts or gaps DEL508-508": "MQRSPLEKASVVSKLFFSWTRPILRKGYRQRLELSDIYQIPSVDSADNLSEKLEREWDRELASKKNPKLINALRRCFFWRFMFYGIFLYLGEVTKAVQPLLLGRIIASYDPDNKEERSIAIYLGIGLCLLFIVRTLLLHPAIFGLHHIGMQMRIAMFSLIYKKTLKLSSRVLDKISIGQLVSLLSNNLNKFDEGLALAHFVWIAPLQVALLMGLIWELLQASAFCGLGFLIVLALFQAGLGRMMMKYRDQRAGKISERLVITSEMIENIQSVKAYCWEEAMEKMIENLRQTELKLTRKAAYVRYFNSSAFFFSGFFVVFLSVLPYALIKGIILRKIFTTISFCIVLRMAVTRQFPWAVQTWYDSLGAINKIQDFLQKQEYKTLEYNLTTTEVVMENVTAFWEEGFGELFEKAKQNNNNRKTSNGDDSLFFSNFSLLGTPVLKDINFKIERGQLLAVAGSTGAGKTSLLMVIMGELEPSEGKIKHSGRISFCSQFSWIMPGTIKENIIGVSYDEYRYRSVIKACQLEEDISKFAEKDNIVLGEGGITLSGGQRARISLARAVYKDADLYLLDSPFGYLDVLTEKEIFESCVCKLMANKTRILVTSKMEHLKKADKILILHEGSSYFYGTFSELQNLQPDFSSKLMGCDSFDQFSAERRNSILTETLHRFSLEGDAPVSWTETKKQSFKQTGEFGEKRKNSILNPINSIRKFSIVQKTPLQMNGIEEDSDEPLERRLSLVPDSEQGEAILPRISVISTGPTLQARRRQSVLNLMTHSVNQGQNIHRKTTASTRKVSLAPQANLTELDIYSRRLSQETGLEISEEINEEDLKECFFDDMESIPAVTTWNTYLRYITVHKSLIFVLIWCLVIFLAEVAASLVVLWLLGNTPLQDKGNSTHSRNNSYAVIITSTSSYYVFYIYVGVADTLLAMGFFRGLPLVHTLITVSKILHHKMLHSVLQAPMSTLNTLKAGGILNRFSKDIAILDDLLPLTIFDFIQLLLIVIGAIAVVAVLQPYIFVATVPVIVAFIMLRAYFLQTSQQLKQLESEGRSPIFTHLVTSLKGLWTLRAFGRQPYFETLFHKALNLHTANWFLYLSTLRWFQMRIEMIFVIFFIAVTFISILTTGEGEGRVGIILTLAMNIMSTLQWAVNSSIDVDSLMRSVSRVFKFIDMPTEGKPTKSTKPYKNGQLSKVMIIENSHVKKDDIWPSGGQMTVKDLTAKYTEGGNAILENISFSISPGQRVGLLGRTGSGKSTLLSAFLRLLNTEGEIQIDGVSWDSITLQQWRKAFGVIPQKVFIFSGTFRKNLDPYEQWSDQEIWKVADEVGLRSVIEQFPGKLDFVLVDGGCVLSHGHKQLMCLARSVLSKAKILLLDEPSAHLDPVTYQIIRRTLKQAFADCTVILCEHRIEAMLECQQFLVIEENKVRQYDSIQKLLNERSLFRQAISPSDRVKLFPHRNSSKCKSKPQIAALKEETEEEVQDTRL"}, "source": "patent US20250340574A1", "about": "“MODULATORS OF CYSTIC FIBROSIS TRANSMEMBRANE CONDUCTANCE REGULATOR” (Vertex Pharmaceuticals Incorporated, priority 2022, published 2025)", "key": {"[1]": {"molecular_target": "T1, CFTR (F508del/MF-HBE cells) (Homo sapiens, UniProt P13569, DEL508-508)", "assay": "Ussing chamber assay of CFTR-mediated short-circuit currents, Assay B (0.00001 μM to 25 μM, 12 concentrations)", "conditions": "for EC50: read-out: B EC50, with 33 nM potentiator and 18 μM Tezacaftor, 20% human serum; for B Max activity (%): with 33 nM potentiator and 18 μM Tezacaftor, 18-24 hours, 20% human serum", "procedure": "(§1) Ussing chamber experiments were performed using human bronchial epithelial (HBE) cells derived from CF subjects heterozygous for F508del and a minimal function CFTR mutation (F508del/MF-HBE) and cultured as previously described (Neuberger T, Burton B, Clark H, Van Goor F Methods Mol Biol 2011:741:39-54). After four days the apical media was removed, and the cells were grown at an air liquid interface for >14 days prior to use.\n(§2) To isolate the CFTR-mediated short-circuit (ISC) current, F508del/MF-HBE grown on Costar® Snapwell™ cell culture inserts were mounted in an Ussing chamber and the transepithelial ISC was measured under voltage-clamp recording conditions (Vhold=0 mV) at 37° C. The basolateral solution contained (in mM) 145 NaCl, 0.83 K2HPO4, 3.3 KH2PO4, 1.2 MgCl2, 1.2 CaCl2, 10 Glucose, 10 HEPES (pH adjusted to 7.4 with NaOH) and the apical solution contained (in mM) 145 NaGluconate, 1.2 MgCl2, 1.2 CaCl2, 10 glucose, 10 HEPES (pH adjusted to 7.4 with NaOH) and 30 μM amiloride to block the epithelial sodium channel. Forskolin (20 μM) was added to the apical surface to activate CFTR, followed by apical addition of a CFTR inhibitor cocktail consisting of BPO, GlyH-101, and CFTR inhibitor 172 (each at 20 μM final assay concentration) to specifically isolate CFTR currents. The CFTR-mediated ISC (μA/cm^2) for each condition was determined from the peak forskolin response to the steady-state current following inhibition.\nThe activity of the CFTR corrector compounds on the CFTR-mediated ISC was determined in Ussing chamber studies as described above. The F508del/MF-HBE cell cultures were either incubated with the corrector compounds at a range of concentrations in combination with 33 nM (6R,12R)-17-amino-12-methyl-6,15-bis(trifluoromethyl)-13,19-dioxa-3,4,18-triazatricyclo[12.3.1.12,5]nonadeca-1(18),2,4,14,16-pentaen-6-ol and 18 μM Tezacaftor or were incubated with the corrector compounds at a single fixed concentration of 1 μM in combination with 44 nM (6R,12R)-17-amino-12-methyl-6,15-bis(trifluoromethyl)-13,19-dioxa-3,4,18-triazatricyclo[12.3.1.12,5]nonadeca-1(18),2,4,14,16-pentaen-6-ol and 18 μM Tezacaftor for 18-24 hours at 37° C. and in the presence of 20% human serum. The concentration of corrector compounds with 44 nM or 33 nM (6R,12R)-17-amino-12-methyl-6,15-bis(trifluoromethyl)-13,19-dioxa-3,4,18-triazatricyclo[12.3.1.12,5]nonadeca-1(18),2,4,14,16-pentaen-6-ol and 18 μM Tezacaftor during the 18-24 hours incubations was kept constant throughout the Ussing chamber measurement of the CFTR-mediated ISC to ensure compounds were present throughout the entire experiment. […]"}, "[2]": {"molecular_target": "T1, CFTR (F508del/MF-HBE cells)", "assay": "Ussing chamber assay of CFTR-mediated short-circuit currents, Assay C (0.026 μM to 25 μM, 6 concentrations)", "conditions": "for EC50: read-out: C EC50, with 33 nM potentiator and 18 μM Tezacaftor, 20% human serum; for C Max activity (%): with 33 nM potentiator and 18 μM Tezacaftor, 20% human serum", "procedure": "as §1, §2\n(§3) The activity of the CFTR corrector compounds on the CFTR-mediated ISC was determined in Ussing chamber studies as described above. The F508del/MF-HBE cell cultures were either incubated with the corrector compounds at a range of concentrations in combination with 33 nM (6R,12R)-17-amino-12-methyl-6,15-bis(trifluoromethyl)-13,19-dioxa-3,4,18-triazatricyclo[12.3.1.12,5]nonadeca-1(18),2,4,14,16-pentaen-6-ol and 18 μM Tezacaftor or were incubated with the corrector compounds at a single fixed concentration of 1 μM in combination with 44 nM (6R,12R)-17-amino-12-methyl-6,15-bis(trifluoromethyl)-13,19-dioxa-3,4,18-triazatricyclo[12.3.1.12,5]nonadeca-1(18),2,4,14,16-pentaen-6-ol and 18 μM Tezacaftor for 18-24 hours at 37° C. and in the presence of 20% human serum. The concentration of corrector compounds with 44 nM or 33 nM (6R,12R)-17-amino-12-methyl-6,15-bis(trifluoromethyl)-13,19-dioxa-3,4,18-triazatricyclo[12.3.1.12,5]nonadeca-1(18),2,4,14,16-pentaen-6-ol and 18 μM Tezacaftor during the 18-24 hours incubations was kept constant throughout the Ussing chamber measurement of the CFTR-mediated ISC to ensure compounds were present throughout the entire experiment. The efficacy and potency of the putative F508del correctors was compared to that of the known Vertex corrector, (14S)-8-[3-(2-{Dispiro[2.0.2.1]heptan-7-yl}ethoxy)-1H-pyrazol-1-yl]-12,12-dimethyl-2λ^6-thia-3,9,11,18,23-pentaazatetracyclo[17.3.1.111,14.05,10]tetracosa-1(22),5,7,9,19(23),20-hexaene-2,2,4-trione, in combination with 18 μM Tezacaftor and 1 μM Ivacaftor.\n(§4) • Assay A: 0.1 μM to 25 μM, 6 concentrations • Assay B: 0.00001 μM to 25 μM, 12 concentrations • Assay C: 0.026 μM to 25 μM, 6 concentrations • Assay D: Activity at single concentration of 1 μM"}, "[3]": {"molecular_target": "T1, CFTR (F508del/MF-HBE cells)", "assay": "Ussing chamber assay of CFTR-mediated short-circuit currents, Assay D (single concentration of 1 μM)", "conditions": "with 44 nM potentiator and 18 μM Tezacaftor, 18-24 hours, 20% human serum", "procedure": "as §1, §2\nThe activity of the CFTR corrector compounds on the CFTR-mediated ISC was determined in Ussing chamber studies as described above. […]"}, "[4]": {"molecular_target": "T1, CFTR (F508del/MF-HBE cells)", "assay": "Ussing chamber assay of CFTR-mediated short-circuit currents, Assay A (0.1 μM to 25 μM, 6 concentrations)", "conditions": "for EC50: read-out: A EC50, with 33 nM potentiator and 18 μM Tezacaftor, 20% human serum; for A Max activity (%): with 33 nM potentiator and 18 μM Tezacaftor, 18-24 hours, 20% human serum", "procedure": "as §1, §2, §3, §4"}}, "note": "Structures were worked out from names or drawings and are uncertain."}
{"smiles": "Cc1cccc(C)c1-c1cc2nc(n1)NS(=O)(=O)c1cccc(c1)C(=O)N(Cc1cnc3oc(C4CC4)cc3n1)[C@H](CCC1CC1)CO2", "values": [{"measurement": "EC50", "setting": "[1]", "result": "3 to 30", "unit": "µM"}, {"measurement": "B Max activity (%)", "setting": "[1]", "result": "+++ (+++ is >60%)"}]}
{"smiles": "CCC(C)(C)CC1COc2cc(-c3c(C)cccc3C)nc(n2)NS(=O)(=O)c2cccc(c2)C(=O)N1Cc1cnc2oc(C(C)C)cc2n1", "note": "(stereo not shown)", "values": [{"measurement": "EC50", "setting": "[2]", "result": "< 1", "unit": "µM"}, {"measurement": "D activity at 1 μM (%)", "setting": "[3]", "result": "+++ (+++ is >60%)"}]}
{"smiles": "Cc1cccc(C)c1-c1cc2nc(n1)NS(=O)(=O)c1cccc(c1)C(=O)N(Cc1cnc3oc(C(C)C)cc3n1)[C@H](CC1CCCOC1)CO2", "note": "(single isomer, unassigned) [Compound I-66]", "values": [{"measurement": "EC50", "setting": "[4]", "result": "< 1", "unit": "µM"}, {"measurement": "A Max activity (%)", "setting": "[4]", "result": "+++ (+++ is >60%)"}]}
{"smiles": "Cc1cccc(C)c1-c1cc2nc(n1)NS(=O)(=O)c1cccc(c1)C(=O)N(Cc1cnc3oc(C(C)C)cc3n1)[C@H](CC13CC(C1)C3)CO2", "values": [{"measurement": "EC50", "setting": "[4]", "result": "< 1", "unit": "µM"}, {"measurement": "A Max activity (%)", "setting": "[4]", "result": "+++ (+++ is >60%)"}, {"measurement": "EC50", "setting": "[1]", "result": "3 to 30", "unit": "µM"}, {"measurement": "B Max activity (%)", "setting": "[1]", "result": "+++ (+++ is >60%)"}]}
{"smiles": "Cc1cccc(C)c1-c1nc2nc(c1C)OC[C@@H](CC(C)(C)C)N(Cc1cnc3oc(C(C)(C)C)cc3n1)C(=O)c1cccc(c1)S(=O)(=O)N2", "values": [{"measurement": "EC50", "setting": "[2]", "result": "1 to 3", "unit": "µM"}, {"measurement": "C Max activity (%)", "setting": "[2]; 18-24 hours", "result": "+++ (+++ is >60%)"}, {"measurement": "D activity at 1 μM (%)", "setting": "[3]", "result": "+++ (+++ is >60%)"}]}
{"smiles": "Cc1cccc(C)c1-c1cc2nc(n1)NS(=O)(=O)c1cccc(c1)C(=O)N(Cc1ncc3cc(C4CC4)n(C)c3n1)[C@H](CC(C)(C)C)CO2", "values": [{"measurement": "EC50", "setting": "[2]", "result": "1 to 3", "unit": "µM"}, {"measurement": "C Max activity (%)", "setting": "[2]; 18-24 hours", "result": "+++ (+++ is >60%)"}, {"measurement": "D activity at 1 μM (%)", "setting": "[3]", "result": "+++ (+++ is >60%)"}]}
{"smiles": "Cc1cccc(C)c1-c1cc2nc(n1)NS(=O)(=O)c1cccc(c1)C(=O)N(Cc1ccn3nc(C(C)C)cc3n1)[C@H](CC1(C)CC1)CO2", "values": [{"measurement": "EC50", "setting": "[2]", "result": "1 to 3", "unit": "µM"}, {"measurement": "C Max activity (%)", "setting": "[2]", "result": "+++ (+++ is >60%)"}]}
{"smiles": "Cc1cccc(C)c1-c1cc2nc(n1)NS(=O)(=O)c1cccc(c1)C(=O)N(Cc1cnc3oc(C(C)C)c(C)c3n1)[C@H](C[C@H]1CCCCO1)CO2", "values": [{"measurement": "EC50", "setting": "[4]", "result": "< 1", "unit": "µM"}, {"measurement": "A Max activity (%)", "setting": "[4]", "result": "+++ (+++ is >60%)"}]}
{"smiles": "Cc1cccc(C)c1-c1nc2nc(c1C)OC[C@@H](COC(C)C)N(Cc1cnc3cc(C(C)(C)C(F)(F)F)n(C)c3n1)C(=O)c1cccc(c1)S(=O)(=O)N2", "values": [{"measurement": "EC50", "setting": "[2]", "result": "< 1", "unit": "µM"}, {"measurement": "C Max activity (%)", "setting": "[2]", "result": "+++ (+++ is >60%)"}]}
